Values quoted from earlier work as cited in patent US20010011084A1, “USE OF ESTROGEN TO MODIFY THE AMOUNT OF SEROTONIN TRANSPORTER OR ITS MRNA” (priority 1996, published 2001).
At least one structure is not confirmed: it was looked up by name or label, or the drawing left a doubt.

Test system: paroxetine-labelled 5-HT uptake sites
Details: cited from earlier work

## CC(N)Cc1ccc2c(c1)OCO2 (centres unmarked) [MDA, methylenedioxy-amphetamine]
Raphe nuclei
  density of binding in the raphe nuclei: unaffected
Several brain regions
  reduction of paroxetine-labelled 5-HT uptake sites: 70%
